Experimental data as given in patent US5597685A, “Color photographic element having improved image stability” (Eastman Kodak Company, priority 1995, dated 1997).

Columns and labels:
[1] = Extent of reaction between SI-20 and M-41 in mixed dispersions by HPLC: loss of M-41; conditions: mixed with equal weight of SI-20 dispersion, 40° C., 26 hours, listed substance is image stabilizer in M-41 dispersion
Experimental: (§1) A dispersion of the epoxide compound SI-20 was prepared in the following manner.
(§2) 2.0 grams of SI-20 was combined with 2.0 grams of poly(vinylpyrrolidone) (Kollidon 25 grade from BASF), 0.11 grams of sodium dodecyl sulfate and 20.04 grams of distilled water to constitute the slurry. This was combined with 80.57 grams of zirconia beads and placed on a Sweco mill to grind for five days. The slurry was then separated from the beads by filtration. An aqueous solution of gelatin was prepared by combining 6.88 grams of a 24% solution of Type IV gelatin with 8.33 grams of distilled water. The pH of the gelatin solution was adjusted to 5.0. The latter was then combined with 25 grams of the ground slurry to constitute the dispersion.
A dispersion of the magenta coupler M-41 was prepared in the following manner. 14.73 grams of tri(2-ethylhexyl) phosphate was heated as coupler solvent to a temperature of 120° C. and combined with 11.35 grams of image stabilizer STG-A1 and 3.4 grams of ST-1. This was then combined with 12.75 grams of coupler M-41 to constitute the oil phase. The aqueous phase was prepared by mixing 88.5 grams of a 24% w/w solution of Type IV gelatin with 21.2 grams of a 10% w/w solution of the surfactant Alkanol XC and 273 grams of distilled water. The latter was then heated to 70° C. The oil phase was then combined with the aqueous phase and the mixture passed twice through a microfluidizer at a pressure of 10,000 psi at 70° C. to obtain the dispersion. [drawing 35]
A dispersion of M-41 was also prepared with the image stabilizer ST-2 (control) in place of STG-A1. [drawing 36]
(§3) A given weight of dispersion of M-41 was then mixed with an equal weight of dispersion of epoxide SI-20 and the mixture was incubated in a water bath at 40° C. After 26 hours the mixture was analyzed by high perfomance liquid chromatography (HPLC) to determine the extent of reaction between SI-20 and M-41. The results are as follows:
Additional dispersions of M-41 were prepared according to the method of Example 1 but using image stabilizers ST-4 and ST-5 as controls in place of STG-A1. [drawing 38]
As before, a given weight of dispersion of M-41 was mixed with an equal weight of dispersion of epoxide SI-20 and the mixture was then incubated in a water bath at 40° C. After 26 hours the mixture was analyzed by high performance liquid chromatography (HPLC) to determine the extent of reaction between SI-20 and M-41.

[2] = Extent of reaction between SI-20 and M-41 in mixed dispersions by HPLC: loss of SI-20; conditions: mixed with equal weight of M-41 dispersion, 40° C., 26 hours, listed substance is image stabilizer in M-41 dispersion
Experimental: as §1, §2
A dispersion of the magenta coupler M-41 was prepared in the following manner. 14.73 grams of tri(2-ethylhexyl) phosphate was heated as coupler solvent to a temperature of 120° C. and combined with 11.35 grams of image stabilizer STG-A1 and 3.4 grams of ST-1. This was then combined with 12.75 grams of coupler M-41 to constitute the oil phase. […]
as §3, with “M-41.” for “M-41. The results are as follows:”

CCCCOc1ccc(C(C)(C)CC(C)(C)C)cc1N(CCCC)CCCC [ST-2]
% loss M-41 [1]: 38.1% | % loss SI-20 [2]: 11.1%

CCCCCCCCc1cc2c(cc1O)C(C(C)C)CC(C)(C)O2 (stereo not drawn) [ST-4]
% loss M-41 [1]: 59.0%

CCCOc1cc2c(cc1OCCC)C1(CC2(C)C)CC(C)(C)c2cc(OCCC)c(OCCC)cc21 [ST-5]
% loss M-41 [1]: 34.0%

CCCCC(CC)COc1ccc(N2CCS(=O)(=O)CC2)cc1 (stereo not drawn) [STG-A1]
% loss M-41 [1]: 89.5% | % loss SI-20 [2]: 31.4%
